# These are yes or no findings as the source states them, for the method shown. Binding calls can cover weak binding; strength is not graded here.
# Target: TaERF-6-3A (wheat (variety JW1))
# Assay: two-hybrid; point-to-point yeast two-hybrid; pGBKT7-TaERF-6-3A as bait, pGBKAD-AtCIPK22 as prey; grown on SD/-Trp/-Leu and SD/-Trp/-Leu/-His/-Ade/+X-alpha-Gal, read after 2 to 3 days
binder,measurement,value
"calcineurin B-like interacting protein kinase 22 (AtCIPK22) (protein, UniProt O80902 1-431) MAEDSNSSESIIVNVTGDDNKSALFGKYDLGKLLGSGAFAKVYQAEDLQNGGESVAIKVVQKKRLKDGLTAHVKREISVMRRLRHPHIVLLSEVLATKTKIYFVMELAKGGELFSRVTSNRFTESLSRKYFRQLISAVRYCHARGVFHRDLKPENLLLDENRDLKVSDFGLSAMKEQIHPDGMLHTLCGTPAYVAPELLLKKGYDGSKADIWSCGVVLFLLNAGYLPFRDPNIMGLYRKIHKAQYKLPDWTSSDLRKLLRRLLEPNPELRITVEEILKDPWFNHGVDPSEIIGIQADDYDLEENGKILNAFDLISSASSSNLSGLFGNFVTPDHCDQFVSDESTAVIMRKVEEVAKQLNLRIAKKKERAIKLEGPHGVANVVVKVRRLTNELVMVEMKNKQRDVGLVWADALRQKLRRLINQPVYKVPDKP",binding,binds

# Source: publication PMC8950334
